Measured values taken from PMC9309532.
Construct, isoform or probe ends are uncertain for at least one entry. For part of these data: No signal at the amounts used counts as a negative.

Columns and labels:
[1] = target: T1, SfSoxC (His-SfSOXC) (Spodoptera frugiperda) (UniProt A0A9R0D0D0); experiment: competition with a labelled probe; conditions: band of labeled probe weaker at 1-fold, gone at 100-fold molar excess; LightShift Chemiluminescent EMSA Kit (Thermo Fisher), manufacturer's protocol; pH and temperature not stated; recombinant protein; protein details: His
[2] = target: T1, SfSoxC (His-SfSOXC) (Spodoptera frugiperda); experiment: EMSA; conditions: LightShift Chemiluminescent EMSA Kit (Thermo Fisher), manufacturer's protocol; pH and temperature not stated; recombinant protein; protein details: His; label: biotin

Sequence	binding result [1]	binding result [2]
TGTCGATTCAAAGGTAATT (double strand) [SfEH probe, unlabeled competitor]	binds	–
TGTCGAGGACGCTGTAATT (double strand) [SfEH mutated probe, biotin-tagged]	–	no binding
TGTCGATTCAAAGGTAATT (double strand) [SfEH probe, biotin-tagged]	–	binds
